# Results are given in words; binding and its absence hold for the method and conditions named. Binding seen in cells or lysates may run through a third protein. Some results given as binding are weak or reduced against the parent protein; the word gives no strength. Sequences can lack the tags named with a protein.
# The chains behind the UniProt entries cited, without tags or fusion partners.
# UniProt Q15796: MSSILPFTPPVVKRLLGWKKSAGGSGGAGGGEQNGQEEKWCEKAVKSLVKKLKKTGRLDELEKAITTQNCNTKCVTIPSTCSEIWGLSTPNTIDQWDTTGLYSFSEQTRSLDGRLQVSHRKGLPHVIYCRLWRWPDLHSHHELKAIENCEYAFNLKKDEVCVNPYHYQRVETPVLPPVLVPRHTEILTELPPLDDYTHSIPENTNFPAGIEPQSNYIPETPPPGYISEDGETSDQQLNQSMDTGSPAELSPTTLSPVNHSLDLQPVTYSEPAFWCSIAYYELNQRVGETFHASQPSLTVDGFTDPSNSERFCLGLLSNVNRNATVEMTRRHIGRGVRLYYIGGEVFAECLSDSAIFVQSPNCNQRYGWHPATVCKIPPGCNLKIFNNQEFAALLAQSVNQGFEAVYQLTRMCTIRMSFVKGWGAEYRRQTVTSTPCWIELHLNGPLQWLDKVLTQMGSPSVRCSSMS
# UniProt P84022: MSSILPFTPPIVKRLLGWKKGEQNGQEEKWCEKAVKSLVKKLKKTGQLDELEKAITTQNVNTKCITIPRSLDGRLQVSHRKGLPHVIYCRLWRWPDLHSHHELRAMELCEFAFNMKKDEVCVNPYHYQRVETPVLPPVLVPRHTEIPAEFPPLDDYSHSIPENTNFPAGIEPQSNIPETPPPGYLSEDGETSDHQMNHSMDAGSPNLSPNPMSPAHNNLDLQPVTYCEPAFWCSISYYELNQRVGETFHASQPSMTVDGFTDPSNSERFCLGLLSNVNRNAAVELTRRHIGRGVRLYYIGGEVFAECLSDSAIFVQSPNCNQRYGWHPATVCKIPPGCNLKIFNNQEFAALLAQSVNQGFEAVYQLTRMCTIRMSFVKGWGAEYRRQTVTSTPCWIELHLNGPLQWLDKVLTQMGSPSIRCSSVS
# UniProt Q13485: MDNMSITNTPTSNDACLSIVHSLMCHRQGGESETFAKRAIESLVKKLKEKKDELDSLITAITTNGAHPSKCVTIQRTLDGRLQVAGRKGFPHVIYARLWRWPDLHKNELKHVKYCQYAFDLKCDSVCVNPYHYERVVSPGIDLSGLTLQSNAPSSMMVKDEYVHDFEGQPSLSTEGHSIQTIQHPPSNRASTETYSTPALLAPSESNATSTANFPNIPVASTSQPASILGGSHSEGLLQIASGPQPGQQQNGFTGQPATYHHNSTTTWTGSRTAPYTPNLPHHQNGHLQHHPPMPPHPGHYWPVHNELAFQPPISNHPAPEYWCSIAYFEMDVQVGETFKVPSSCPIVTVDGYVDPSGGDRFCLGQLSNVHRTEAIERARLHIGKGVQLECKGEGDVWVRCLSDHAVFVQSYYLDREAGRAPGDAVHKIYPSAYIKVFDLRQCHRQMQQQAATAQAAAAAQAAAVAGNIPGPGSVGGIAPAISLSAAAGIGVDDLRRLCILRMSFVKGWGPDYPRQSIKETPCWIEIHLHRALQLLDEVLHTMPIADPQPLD
# Molecular target: T1, myc-RELB (UniProt Q01201)
# T1 sequence: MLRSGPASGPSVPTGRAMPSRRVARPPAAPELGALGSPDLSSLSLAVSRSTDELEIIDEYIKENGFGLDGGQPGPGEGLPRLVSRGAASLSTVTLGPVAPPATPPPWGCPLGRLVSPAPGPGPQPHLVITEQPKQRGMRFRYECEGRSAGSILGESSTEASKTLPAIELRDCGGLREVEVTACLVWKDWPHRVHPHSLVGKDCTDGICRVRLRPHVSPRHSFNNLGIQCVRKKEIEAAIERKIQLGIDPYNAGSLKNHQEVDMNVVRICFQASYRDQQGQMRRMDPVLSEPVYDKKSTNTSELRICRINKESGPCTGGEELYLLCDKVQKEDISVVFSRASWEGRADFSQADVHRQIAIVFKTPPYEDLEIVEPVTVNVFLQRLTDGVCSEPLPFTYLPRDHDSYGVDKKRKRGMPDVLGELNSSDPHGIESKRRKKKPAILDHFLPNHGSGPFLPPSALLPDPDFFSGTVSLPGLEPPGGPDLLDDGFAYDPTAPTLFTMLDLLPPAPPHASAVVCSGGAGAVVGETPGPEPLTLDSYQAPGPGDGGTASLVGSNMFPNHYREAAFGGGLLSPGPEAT
# Assay: cross-linking + co-IP; HEK293T co-transfected; cells cross-linked with 1% para-formaldehyde 10 min, lysed in 1% SDS, sonicated, diluted to 0.1% SDS with IGEPAL buffer; anti-myc agarose beads 4 h; immunoblotting
row,binding,Substance
1,binds,epitope-tagged SMAD2 (from UniProt Q15796 1-467)
2,binds,epitope-tagged SMAD3 (from UniProt P84022 1-425)
3,binds,epitope-tagged SMAD4 (from UniProt Q13485 1-552)
